According to patent publication US4547489A, “Conformationally restricted thymopentin-like compounds” (Ortho Pharmaceutical Corporation, priority 1984, dated 1985):
Not every detail of the peptide structures is certain; ends, links or a residue may be inferred. Where a SMILES comes first, the peptide text is derived from it. Bridges are numbered along the chain shown (N, C = ends).

Legend:
[1] = system: cell membrane receptor of the intact CEM cell; experiment: Cyclic-GMP assay: induction of cyclic-GMP production in CEM cells; type: cell-based, human; settings: for thymopentin-like activity (cyclic GMP induced by test peptide): CEM cells, 4-5 min incubation at 37° C., radioimmunoassay of cyclic GMP
Excerpt: This biological activity is evidenced by an assay measuring induction of cyclic-GMP production in a human T-cell line in comparison with thymopoietin. The induction of c-GMP production by a test peptide in this assay indicates the ability of the test peptide to bind to the thymopoietin receptor site on the cell and induce thymopoietin-like biological activity.
This assay measures the ability of the test peptide to bind to the cell membrane receptor of the intact CEM cell and selectively stimulate production of cyclic-GMP, as does thymopoietin itself.
The CEM cell line was obtained from the American Type Culture Collection and was cultured in RPMI-1640 medium supplemented with 10% heat-inactivated fetal bovine serum, 10% heat-inactivated horse serum, 2mM L-glutamine, and 50 µg/ml gentamycin at 37° C. in a humid atmosphere containing 5 percent CO2, to a final density of 3-4×10^6 cells/ml. At this concentration, the cells were in the early stationary phase of the growth curve and were judged greater than 90% viable by trypan blue exclusion. The cells were grown for four days and harvested. After harvesting, the cells were washed three times in PBS and were resuspended in RPMI-1640 medium at a concentration of 3.12×10^7 cells/ml. After the cells had been allowed to equilibrate at 37° C. for 30 min, various concentrations of the test peptides were added in a volume of 25 μl of medium to 1 ml of cells, the initial concentration of test compound added being selected to yield the desired final concentration of test peptide in the medium. The test peptide was mixed instantly with the cell suspension. […]
The cells in TCA were then homogenized and sonicated to release cyclic nucleotide. The resulting suspension was centrifuged at 3000 g for 20 min at 4° C. and the resulting precipitate was dissolved in 0.1N NaOH and sonicated for a further 30 minutes, after which the protein content was determined by the method of Cadman, et al., Anal. Biochem., 96, 21-23 (1979). […]

[2] = system: isolated thymopoietin cell surface receptor protein from CEM cells; settings: 2.3×10^-10 M 125I-Tp, 4 μg receptor protein, TP 37-45 nonapeptide present, 12 h

SMILES | thymopentin-like activity (cyclic GMP induced by test peptide) [1] | displacement of 125I-thymopoietin (in words) [2] | thymopoietin-like activity (general statement) ([1]; test not named, b46 says activity is evidenced by the c-GMP assay)
CC(C)[C@H](NC(=O)[C@@H]1CC(=O)NCCCC[C@H](NC(=O)[C@@H](N)CCCNC(=N)N)C(=O)N1)C(=O)N[C@@H](Cc1ccc(O)cc1)C(=O)O [peptide 4, Arg-cyclo-(Lys-Asp)-Val-Tyr] (H-RKDVY-OH; lactam 2-3) | demonstrated thymopentin-like activity |  | 
N=C(N)NCCC[C@H](N)C(=O)N[C@H]1CCCCNC(=O)CC[C@@H](C(=O)N[C@@H](Cc2ccc(O)cc2)C(=O)O)NC(=O)[C@H](CC(=O)O)NC1=O [peptide 3, Arg-cyclo(Lys-Asp-Glu)-Tyr] (H-RKDEY-OH; lactam 2-4) | inactive | no detectable displacement | inactive
